The subject of the test is BDF1 mice, P388 leukemia ip, median survival T/C. The test is described as follows: NCI In Vivo Anticancer Drug Screen. Data for tumor model P388 Leukemia (intraperitoneal) in B6D2F1 (BDF1) mice. As to conditions: T/C endpoint: median survival time, higher T/C = longer survival. Here is the method: The antitumor activity of compounds was measured in mice bearing transplantable tumors. Survival or tumor size were measured and the results are expressed as the measurement made in the treated group (T) divided by the measurement made in the vehicle treated control group (C). The tumor model used in this assay is P388 Leukemia (intraperitoneal) in B6D2F1 (BDF1) mice

Setting [1] is: dose: 50.0 mg/kg/injection, schedule: Q01DX009 (ip), vehicle: saline.
The mark [2] stands for this setting: dose: 12.5 mg/kg/injection, schedule: Q01DX009 (ip), vehicle: saline with Tween-80.
[3] abbreviates: dose: 25.0 mg/kg/injection, schedule: Q01DX009 (ip), vehicle: saline with Tween-80.
Setting [4] is: dose: 50.0 mg/kg/injection, schedule: Q01DX009 (ip), vehicle: saline with Tween-80.
Setting [5] is: dose: 100.0 mg/kg/injection, schedule: Q01DX009 (ip), vehicle: saline with Tween-80.
Where [6] appears, read: dose: 200.0 mg/kg/injection, schedule: Q01DX009 (ip), vehicle: saline with Tween-80.
Setting [7] is: dose: 200.0 mg/kg/injection, schedule: Q04DX003 (ip), vehicle: saline with Tween-80.
[8] abbreviates: dose: 100.0 mg/kg/injection, schedule: Q01DX009 (ip), vehicle: saline.
The mark [9] stands for this setting: dose: 200.0 mg/kg/injection, schedule: Q04DX003 (ip), vehicle: saline.
The mark [10] stands for this setting: dose: 400.0 mg/kg/injection, schedule: Q01DX009 (ip), vehicle: saline with Tween-80.
Setting [11] is: dose: 400.0 mg/kg/injection, schedule: Q04DX003 (ip), vehicle: saline with Tween-80.
[12] abbreviates: dose: 4.0 mg/kg/injection, schedule: Q01DX009 (ip), vehicle: saline with Tween-80.
The mark [13] stands for this setting: dose: 50.0 mg/kg/injection, schedule: Q04DX003 (ip), vehicle: saline with Tween-80.
[14] abbreviates: dose: 200.0 mg/kg/injection, schedule: Q01DX009 (ip), vehicle: other.
Where [15] appears, read: dose: 400.0 mg/kg/injection, schedule: Q01DX009 (ip), vehicle: other.
[16] abbreviates: dose: 0.25 mg/kg/injection, schedule: Q01DX009 (ip), vehicle: saline with Tween-80.
[17] abbreviates: dose: 0.5 mg/kg/injection, schedule: Q01DX009 (ip), vehicle: saline with Tween-80.
Where [18] appears, read: dose: 1.0 mg/kg/injection, schedule: Q01DX009 (ip), vehicle: saline with Tween-80.
The mark [19] stands for this setting: dose: 2.0 mg/kg/injection, schedule: Q01DX009 (ip), vehicle: saline with Tween-80.
Where [20] appears, read: dose: 8.0 mg/kg/injection, schedule: Q01DX009 (ip), vehicle: saline with Tween-80.

Molecules are shown by their SMILES. The list shows only some results of the screen, not a fair sample: it gathers tests that were run many times, whatever their T/C, doses with no T/C, and many T/C values between a quarter and a half above the control. Other doses and runs of a compound stand elsewhere. T/C: endpoint of the treated group in % of that of the vehicle group. Some doses have a count of surviving animals in place of a T/C: the source holds a T/C of zero for them, seemingly a mark for toxic or unscored doses. Some doses without a T/C left all or most animals alive at the check, yet need not have been tolerated: survival well below the control is almost never listed, so the zero probably covers shortened survival too. Survivors were counted at the toxicity check, usually on the fifth day, unless a day is given; later deaths do not show. Schedule codes are those of the source, taken here to give the interval after Q, in days (D) or hours (H), and the number of doses after X. Some entries hold several experiments; their values stand side by side, smallest first. Some structures stand for samples that the source files as different forms (salt, stereo form or complex); doses refer to the form tested. Where survival is the endpoint, the PubChem record calls one and a half times the control and up active, and a quarter to a half above the control has no call in these data; cut-offs in other NCI protocols can differ. Some T/C values carry the count of animals alive at the toxicity check (mostly the fifth day); without a count, all were alive then.

For the molecule `Cc1ncc(CSC(=N)N)n1Cc1ccccc1`, the T/C by setting is: (dose: 20.0 mg/kg/injection, schedule: Q01DX009 (ip), vehicle: saline) 130 % of control; (dose: 33.0 mg/kg/injection, schedule: Q01DX009 (ip), vehicle: saline) 135 % of control; under setting [1], 144 % of control; (dose: 75.0 mg/kg/injection, schedule: Q01DX009 (ip), vehicle: saline) 126 % of control.
In the case of `O=C(CC(c1ccccc1)c1c(O)c2ccccc2oc1=O)c1ccccc1` (centres undefined), the survivor count is, setting by setting: (dose: 6.25 mg/kg/injection, schedule: Q01DX009 (ip), vehicle: saline with Tween-80) 5 of 6; under setting [2], 3 of 6; under setting [3], 2 of 6; under setting [4], 1 of 6; under setting [5], 1 of 6; under setting [6], 2 of 6.
In the case of `CC(=O)Nc1ccccc1F`, the survivor count (dose: 400.0 mg/kg/injection, schedule: Q04DX003 (ip), vehicle: Klucel (hydroxypropylcellulose) (HPC)) is 0 of 6.
On to `CCOC(=O)c1cnn(C(N)=O)c1N`, for which, under setting [5], the survivor count was 6 of 6.
For `CC[C@H](CC[C@@H](C)[C@H]1CC[C@H]2[C@@H]3CC[C@H]4C[C@@H](O)CC[C@]4(C)[C@H]3CC[C@]12C)C(C)C`, the survivor count was 5 of 6 under setting [5] and 6 of 6 under setting [7].
With `CN(C)CC/C=C1\c2ccccc2C(C)(C)c2ccc(Cl)cc21`, the T/C (dose: 22.0 mg/kg/injection, schedule: Q04DX003 (ip), vehicle: saline with Tween-80) was 140 % of control and the T/C (dose: 25.0 mg/kg/injection, schedule: Q01DX009 (ip), vehicle: Klucel (hydroxypropylcellulose) (HPC)) is 138 % of control.
`CC(=O)C(C)(CCC#N)CCC#N`: the survivor count under setting [7] was 0 of 6.
Turning to `Nc1ccn(CC(=O)c2ccco2)c(=O)n1`, the survivor count reads like this: under setting [8], 6 of 6; (dose: 200.0 mg/kg/injection, schedule: Q01DX009 (ip), vehicle: saline) 0 of 6; under setting [9], 2 of 6.
Regarding `CCN(CC)CCOC(=O)c1ccc(NC(=O)Nc2ccc(C(=O)OCCN(CC)CC)cc2)cc1`, the survivor count reads like this: under setting [6], 0 of 6; under setting [10], 0 of 6.
For `O=c1[nH]c2cc(Cl)c(Cl)cc2o1`, under setting [11], the survivor count is on record as 2 of 6.
For the molecule `O=C1CC2OCC=C3CN4CCC56c7ccccc7N1C5C2C3CC46` (centres undefined) (tested in a mixture with another compound), the survivor count (dose: 2.0 mg/kg/injection, schedule: Q04DX003 (ip), vehicle: saline + alcohol) is 1 of 6.
On to `Cc1ccc(-c2nc3cc(Cl)ccc3c(=O)o2)cc1`, for which the survivor count under setting [11] was 0 of 6.
As to `N#CC1(C#N)C(c2ccccc2)C1(C#N)C#N`, the T/C is 130 % of control (dose: 1.33 mg/kg/injection, schedule: Q01DX009 (ip), vehicle: saline); 127 and 130 % of control under setting [12]; 127 % of control (dose: 6.0 mg/kg/injection, schedule: Q01DX009 (ip), vehicle: saline with Tween-80). In addition, the survivor count is listed as 2 of 6 (dose: 4.0 mg/kg/injection, schedule: Q01DX009 (ip), vehicle: saline); 4 of 6 under setting [2]; 4 of 6 under setting [3].
With `O=C1CSCC(=O)O1`, the survivor count is, setting by setting: (dose: 100.0 mg/kg/injection, schedule: Q01DX009 (ip), vehicle: Klucel (hydroxypropylcellulose) (HPC)) 4 of 6; (dose: 200.0 mg/kg/injection, schedule: Q01DX009 (ip), vehicle: Klucel (hydroxypropylcellulose) (HPC)) 0 of 6.
`CN(C)CCCN1c2ccccc2Sc2ccc(Cl)cc21`: the T/C by setting is: (dose: 25.0 mg/kg/injection, schedule: Q01DX009 (ip), vehicle: saline) 136 % of control; (dose: 25.0 mg/kg/injection, schedule: Q04DX003 (ip), vehicle: saline) 143 % of control. Also, the survivor count under setting [1] is recorded as 4 of 6; the survivor count under setting [13] is reported as 2 of 6; the survivor count (dose: 50.0 mg/kg/injection, schedule: Q04DX003 (ip), vehicle: saline) was 6 of 6; the survivor count (dose: 100.0 mg/kg/injection, schedule: Q04DX003 (ip), vehicle: saline) was 5 of 6 and 6 of 6; the survivor count under setting [9] is reported as 0 of 6.
For the molecule `CN(C)C(=O)c1ccc(C(C)(C)C)cc1`, the survivor count is 3 of 6 under setting [14] and 3 of 6 under setting [15].
Regarding `Cc1cc(NC(=O)c2ccc(C(=O)Nc3ccc(C4=NCCN4)c(C)c3)cc2)ccc1C1=NCCN1`, the survivor count under setting [10] is given as 4 of 6.
As for `C#CCn1cnc2c(Cl)ncnc21`, the survivor count is 4 of 6 under setting [14] and 3 of 6 under setting [15].
Consider `CC(=O)CC(C)(C)N`, for which the survivor count under setting [8] was 3 of 6.
Regarding `CS(=O)(=O)c1cnc2ccccc2n1`, the survivor count reads like this: under setting [6], 5 of 6; under setting [10], 0 of 6.
As for `CC(C)C1(C(=O)NNC(=O)CCCc2ccc(N(CCCl)CCCl)cc2)OC2(O)CCCCCN2C1=O` (centres undefined), the survivor count by setting is: (dose: 200.0 mg/kg/injection, schedule: Q04DX003 (ip), vehicle: other) 5 of 6; (dose: 400.0 mg/kg/injection, schedule: Q04DX003 (ip), vehicle: other) 1 of 6.
As to `O=C1c2ccccc2C(=O)c2c(NCCSCCO)ccc(NCCSCCO)c21`, the survivor count is listed as 6 of 6 under setting [14] and 6 of 6 under setting [15].
Turning to `O=C(C=C(C(F)(F)F)C(F)(F)F)c1cccc(C(F)(F)F)c1`, the survivor count under setting [13] is recorded as 4 of 6.
Turning to `N=C(N)c1ccc(-c2ccc(-c3ccc(C(=N)N)cc3)o2)cc1`, the T/C under setting [2] was 125 % of control. The survivor count is 6 of 6 under setting [3], 0 of 6 under setting [4], 0 of 6 under setting [5] and 0 of 6 under setting [6].
`CC1=CC(=O)[C@@H](O)[C@]2(C)[C@H]3[C@@]4(O)OC[C@]35[C@H]([C@@H](C)[C@H]4O)[C@@H](OC(=O)c3ccccc3)C(=O)O[C@@H]5C[C@@H]12`: the survivor count is 5 of 6 (dose: 0.06 mg/kg/injection, schedule: Q01DX009 (ip), vehicle: saline with Tween-80); 6 of 6 (dose: 0.12 mg/kg/injection, schedule: Q01DX009 (ip), vehicle: saline with Tween-80); 5 of 6 under setting [16]; 6 of 6 under setting [17]; 6 of 6 under setting [18]; 3 of 6 under setting [19]. In addition, the survivor count under setting [12] was 3 of 6 and 5 of 6; the survivor count under setting [20] was 1 of 6 and 5 of 6; the survivor count (dose: 16.0 mg/kg/injection, schedule: Q01DX009 (ip), vehicle: saline with Tween-80) is recorded as 3 of 6; the survivor count (dose: 32.0 mg/kg/injection, schedule: Q01DX009 (ip), vehicle: saline with Tween-80) is 0 of 6. Also, the T/C under setting [16] was 125 and 131 % of control; the T/C under setting [17] is 127, 139, 184 % of control [5 of 6 alive]; the T/C under setting [18] is 125, 134 [5 of 6 alive], 175 % of control; the T/C under setting [19] is 135, 161, 201 % of control [4 of 6 alive]; the T/C under setting [12] was 146 and 151 % of control; the T/C under setting [20] was 137 % of control.

The record behind these values is PubChem BioAssay AID328 (DTP/NCI, 2004).
